Binding data for six molecules are collected here from article doi:10.1101/2024.08.08.607204, “Mechanism of ASF1 Inhibition by CDAN1” (bioRxiv, 2024).

Amino acid sequences for entries named in this document (tags omitted). A change or cut given only in a name is not applied to a line headed by its entry.
UniProt Q9NVP2: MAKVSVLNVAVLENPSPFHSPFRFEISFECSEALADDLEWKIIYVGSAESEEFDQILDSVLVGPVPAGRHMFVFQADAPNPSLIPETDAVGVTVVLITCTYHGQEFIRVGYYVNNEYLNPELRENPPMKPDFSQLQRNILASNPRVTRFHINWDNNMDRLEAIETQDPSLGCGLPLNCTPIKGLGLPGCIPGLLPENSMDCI
UniProt Q9Y294: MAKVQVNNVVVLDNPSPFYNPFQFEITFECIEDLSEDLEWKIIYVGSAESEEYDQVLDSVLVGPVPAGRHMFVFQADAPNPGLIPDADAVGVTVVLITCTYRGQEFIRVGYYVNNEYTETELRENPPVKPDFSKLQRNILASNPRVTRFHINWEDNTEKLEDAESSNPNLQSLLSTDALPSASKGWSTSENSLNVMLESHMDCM

The target of assay [1] is T1, Strep-CDAN1 H* (R541A/R544A/R548A) (human) (UniProt Q8IWY9).
T1 sequence: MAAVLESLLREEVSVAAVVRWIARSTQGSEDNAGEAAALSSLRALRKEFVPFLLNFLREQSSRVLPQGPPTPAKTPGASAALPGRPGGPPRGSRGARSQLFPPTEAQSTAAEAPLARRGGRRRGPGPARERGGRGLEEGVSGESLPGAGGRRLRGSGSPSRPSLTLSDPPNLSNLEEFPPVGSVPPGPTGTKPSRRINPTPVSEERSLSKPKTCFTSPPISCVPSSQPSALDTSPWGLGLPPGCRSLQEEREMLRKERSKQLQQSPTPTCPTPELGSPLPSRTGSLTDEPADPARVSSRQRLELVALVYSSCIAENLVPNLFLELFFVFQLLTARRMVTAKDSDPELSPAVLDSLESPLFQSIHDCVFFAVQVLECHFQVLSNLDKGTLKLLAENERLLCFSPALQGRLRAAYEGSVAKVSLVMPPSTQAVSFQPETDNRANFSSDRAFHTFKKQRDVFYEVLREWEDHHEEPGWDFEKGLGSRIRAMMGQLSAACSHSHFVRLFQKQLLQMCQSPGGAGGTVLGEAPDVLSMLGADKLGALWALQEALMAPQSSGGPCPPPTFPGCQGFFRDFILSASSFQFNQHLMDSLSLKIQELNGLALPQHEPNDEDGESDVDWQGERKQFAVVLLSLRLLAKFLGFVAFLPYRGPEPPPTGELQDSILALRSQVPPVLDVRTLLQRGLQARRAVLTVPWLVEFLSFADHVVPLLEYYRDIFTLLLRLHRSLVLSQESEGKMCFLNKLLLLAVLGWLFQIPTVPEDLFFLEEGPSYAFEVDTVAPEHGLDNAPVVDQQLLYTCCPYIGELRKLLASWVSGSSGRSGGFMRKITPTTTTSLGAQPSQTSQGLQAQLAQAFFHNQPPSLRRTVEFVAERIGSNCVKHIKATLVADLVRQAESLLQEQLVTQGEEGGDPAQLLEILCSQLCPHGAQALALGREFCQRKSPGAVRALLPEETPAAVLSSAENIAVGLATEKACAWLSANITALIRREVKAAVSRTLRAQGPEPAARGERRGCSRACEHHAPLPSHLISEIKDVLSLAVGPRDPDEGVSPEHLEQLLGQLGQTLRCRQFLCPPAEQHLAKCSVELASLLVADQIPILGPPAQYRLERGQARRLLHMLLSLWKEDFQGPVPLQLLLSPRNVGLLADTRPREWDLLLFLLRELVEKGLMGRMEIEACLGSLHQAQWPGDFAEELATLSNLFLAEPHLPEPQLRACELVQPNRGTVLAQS
Put plainly: pull-down; Strep-Tactin Sepharose pulldown of ST-CDAN1 variants from lysates of transfected Flp-In 293 T-REx cells (alone, or co-transfected with FLAG-tagged ASF1 variants), IP buffer with 1% Triton X-100, 1 hr at 4°C; immunoblotting. (In general: In western blotting, separated proteins are transferred to a membrane and probed.)

Assay [2] addresses T2, Strep-CDAN1 H*+B* (S194A/R195A/R196 + R541A/R544A/R548A) (human) (UniProt Q8IWY9).
T2 sequence: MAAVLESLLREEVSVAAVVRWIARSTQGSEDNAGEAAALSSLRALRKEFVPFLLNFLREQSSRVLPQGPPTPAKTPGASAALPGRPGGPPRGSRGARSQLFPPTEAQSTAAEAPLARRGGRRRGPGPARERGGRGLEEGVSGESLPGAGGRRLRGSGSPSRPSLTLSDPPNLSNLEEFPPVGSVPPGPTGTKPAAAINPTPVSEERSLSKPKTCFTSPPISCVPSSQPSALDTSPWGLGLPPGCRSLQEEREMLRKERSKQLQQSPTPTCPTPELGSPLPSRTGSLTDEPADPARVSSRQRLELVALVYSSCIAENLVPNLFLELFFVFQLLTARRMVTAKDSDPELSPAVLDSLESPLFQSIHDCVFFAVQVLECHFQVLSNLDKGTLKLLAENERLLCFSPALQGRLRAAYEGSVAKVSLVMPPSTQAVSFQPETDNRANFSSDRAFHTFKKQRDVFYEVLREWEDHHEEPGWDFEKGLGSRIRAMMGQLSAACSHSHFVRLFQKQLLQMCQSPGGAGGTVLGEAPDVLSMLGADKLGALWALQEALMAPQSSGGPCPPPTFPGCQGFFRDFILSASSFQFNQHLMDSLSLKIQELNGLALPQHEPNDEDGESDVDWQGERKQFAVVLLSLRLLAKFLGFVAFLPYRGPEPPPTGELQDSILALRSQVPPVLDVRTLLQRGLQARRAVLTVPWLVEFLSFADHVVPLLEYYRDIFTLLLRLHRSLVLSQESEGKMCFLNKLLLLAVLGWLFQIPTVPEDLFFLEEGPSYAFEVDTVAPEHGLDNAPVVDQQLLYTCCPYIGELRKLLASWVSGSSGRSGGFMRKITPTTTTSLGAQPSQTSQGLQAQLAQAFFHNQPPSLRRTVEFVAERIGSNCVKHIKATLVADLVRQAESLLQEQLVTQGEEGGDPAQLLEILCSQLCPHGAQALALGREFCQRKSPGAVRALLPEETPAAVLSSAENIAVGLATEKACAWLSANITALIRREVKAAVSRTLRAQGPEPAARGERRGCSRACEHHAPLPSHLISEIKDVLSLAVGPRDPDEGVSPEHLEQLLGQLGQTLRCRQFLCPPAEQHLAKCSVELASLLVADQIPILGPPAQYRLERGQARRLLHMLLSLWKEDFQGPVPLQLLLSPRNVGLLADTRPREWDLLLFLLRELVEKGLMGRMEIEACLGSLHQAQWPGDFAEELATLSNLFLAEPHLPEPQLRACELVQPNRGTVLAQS
Described as above.

No constants are given. Whether binding was seen depends on the method and setting. In cells and extracts the contact can be indirect. Some results given as binding are weak or reduced against the parent protein; the word gives no strength.

On to “FLAG-ASF1A>N (ASF1A with the N-terminal domain, residues 1-27, of ASF1B) (from UniProt Q9NVP2 1-27; Q9Y294 28-204)”, for which the binding entry in assay [1] and in assay [2] was “no binding” throughout.
Consider “FLAG-ASF1B>N (ASF1B with the N-terminal domain, residues 1-27, of ASF1A) (from UniProt Q9Y294 1-27; Q9NVP2 28-202)”, for which the binding result in assay [1] was “binds”; in assay [2], “no binding”.
The like results for “FLAG-tagged ASF1A (F-ASF1A) (from UniProt Q9Y294 1-204)” were, in that order, “binds” and “no binding”.
The like results for “endogenous ASF1A (from UniProt Q9Y294 1-204)” were, in that order, “binds” and “no binding”.
The like results for “endogenous ASF1B (from UniProt Q9NVP2 1-202)” were, in that order, “no binding” and “no binding”.

B1: FLAG-tagged CDIN1 (F-CDIN1) (natural protein, UniProt Q9Y2V0 1-281, looked up)
chain: MILTKAQYDEIAQCLVSVPPTRQSLRKLKQRFPSQSQATLLSIFSQEYQKHIKRTHAKHHTSEAIESYYQRYLNGVVKNGAAPVLLDLANEVDYAPSLMARLILERFLQEHEETPPSKSIINSMLRDPSQIPDGVLANQVYQCIVNDCCYGPLVDCIKHAIGHEHEVLLRDLLLEKNLSFLDEDQLRAKGYDKTPDFILQVPVAVEGHIIHWIESKASFGDECSHHAYLHDQFWSYWNRFGPGLVIYWYGFIQELDCNRERGILLKACFPTNIVTLCHSIA
notes: CDIN1 (C15orf41) cDNA synthesized by IDT, in pCDNA3.1; source: Expi293, transiently transfected, in lysate and purified in complexes (anti-FLAG, Strep-Tactin); not shown: 3xFLAG, N-terminal, kept
For the molecule B1, the binding result in assay [1] and in assay [2] was “binds” each time.
